Results published in PMC6976685.
No constants are given. Whether binding was seen depends on the method and setting. Binding calls can cover weak binding; strength is not graded here.

Amino acid sequences for entries named in this document (tags omitted). A change or cut given only in a name is not applied to a line headed by its entry.
UniProt Q8EJI6: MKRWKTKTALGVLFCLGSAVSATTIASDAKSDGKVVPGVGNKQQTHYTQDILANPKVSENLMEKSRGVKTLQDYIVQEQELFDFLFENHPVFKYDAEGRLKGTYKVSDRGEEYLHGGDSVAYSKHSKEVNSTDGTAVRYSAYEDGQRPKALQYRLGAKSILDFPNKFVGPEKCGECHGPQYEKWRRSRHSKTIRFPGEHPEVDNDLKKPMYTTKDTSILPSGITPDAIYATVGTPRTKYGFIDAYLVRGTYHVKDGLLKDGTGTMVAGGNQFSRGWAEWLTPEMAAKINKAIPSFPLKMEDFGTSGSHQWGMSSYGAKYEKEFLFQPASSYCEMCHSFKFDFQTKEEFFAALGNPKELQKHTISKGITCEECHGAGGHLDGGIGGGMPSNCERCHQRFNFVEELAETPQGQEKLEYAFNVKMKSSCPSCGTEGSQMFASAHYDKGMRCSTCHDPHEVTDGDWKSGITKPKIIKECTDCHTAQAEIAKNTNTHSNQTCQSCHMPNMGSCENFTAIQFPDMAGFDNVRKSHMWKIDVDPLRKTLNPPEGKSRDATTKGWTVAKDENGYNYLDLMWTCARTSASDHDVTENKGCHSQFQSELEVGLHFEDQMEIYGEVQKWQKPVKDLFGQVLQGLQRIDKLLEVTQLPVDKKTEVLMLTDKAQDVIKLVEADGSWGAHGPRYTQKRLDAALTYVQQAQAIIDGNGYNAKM
UniProt Q8EK38: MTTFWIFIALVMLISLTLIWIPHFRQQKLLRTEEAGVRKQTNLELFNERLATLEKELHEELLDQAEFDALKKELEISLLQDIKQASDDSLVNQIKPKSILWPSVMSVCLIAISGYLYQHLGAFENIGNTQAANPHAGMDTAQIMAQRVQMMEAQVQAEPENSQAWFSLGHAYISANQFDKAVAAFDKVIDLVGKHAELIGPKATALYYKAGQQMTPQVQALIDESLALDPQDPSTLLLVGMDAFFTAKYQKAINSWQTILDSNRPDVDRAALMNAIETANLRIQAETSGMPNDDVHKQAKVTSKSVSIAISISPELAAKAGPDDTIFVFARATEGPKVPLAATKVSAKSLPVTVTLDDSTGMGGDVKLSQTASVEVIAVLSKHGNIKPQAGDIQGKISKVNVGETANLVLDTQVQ

Biological target: SirA sulfite reductase (SO_0479) (Shewanella oneidensis MR-1) (UniProt Q8EJI6)
Assay: two-hybrid; BacterioMatch II bacterial two-hybrid in the E. coli reporter strain; bait in pBT, target in pTRG, both orientations; serial dilutions spotted on M9, M9 + 3AT and M9 + 3AT with 12.5 µg/mL streptomycin, 37 °C for up to 48 hrs

Row | Substance | binding
1 | CcmI apocytochrome c chaperone (SO_0265) (from UniProt Q8EK38) | binds
2 | SirG apocytochrome c chaperone (SO_0482) (from UniProt Q8EJI3) | binds
